# Results of single-concentration screens

By UniProt entry, the sequences of proteins in these tests, tags left out. Residues count along the entry.
UniProt P9WPC5, whole entry: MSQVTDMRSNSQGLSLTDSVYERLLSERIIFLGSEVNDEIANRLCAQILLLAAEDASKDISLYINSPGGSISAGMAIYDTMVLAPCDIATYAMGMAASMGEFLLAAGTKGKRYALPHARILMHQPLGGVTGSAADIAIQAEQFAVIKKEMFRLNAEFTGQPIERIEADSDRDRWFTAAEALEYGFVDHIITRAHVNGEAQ
UniProt P9WPC3, whole entry partner: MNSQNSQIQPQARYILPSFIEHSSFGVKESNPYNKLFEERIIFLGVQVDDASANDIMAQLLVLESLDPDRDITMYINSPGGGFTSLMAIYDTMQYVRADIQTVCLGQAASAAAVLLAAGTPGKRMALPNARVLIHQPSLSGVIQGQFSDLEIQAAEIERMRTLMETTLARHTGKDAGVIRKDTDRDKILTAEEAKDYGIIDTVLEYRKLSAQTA
UniProt Q4DA54, 1-478: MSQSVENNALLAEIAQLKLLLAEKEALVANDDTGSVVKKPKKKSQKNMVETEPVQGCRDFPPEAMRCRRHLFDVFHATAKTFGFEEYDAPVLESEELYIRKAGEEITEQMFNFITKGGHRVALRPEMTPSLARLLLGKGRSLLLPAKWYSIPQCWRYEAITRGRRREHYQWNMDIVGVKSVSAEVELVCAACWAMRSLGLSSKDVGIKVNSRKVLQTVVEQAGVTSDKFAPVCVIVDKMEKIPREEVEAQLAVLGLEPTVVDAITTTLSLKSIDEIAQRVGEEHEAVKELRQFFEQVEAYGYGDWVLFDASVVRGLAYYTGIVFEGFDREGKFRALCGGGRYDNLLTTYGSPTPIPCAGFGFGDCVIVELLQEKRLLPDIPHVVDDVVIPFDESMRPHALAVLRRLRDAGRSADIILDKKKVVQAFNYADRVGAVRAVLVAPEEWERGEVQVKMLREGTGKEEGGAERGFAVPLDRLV
UniProt Q8IDJ8, 1-583: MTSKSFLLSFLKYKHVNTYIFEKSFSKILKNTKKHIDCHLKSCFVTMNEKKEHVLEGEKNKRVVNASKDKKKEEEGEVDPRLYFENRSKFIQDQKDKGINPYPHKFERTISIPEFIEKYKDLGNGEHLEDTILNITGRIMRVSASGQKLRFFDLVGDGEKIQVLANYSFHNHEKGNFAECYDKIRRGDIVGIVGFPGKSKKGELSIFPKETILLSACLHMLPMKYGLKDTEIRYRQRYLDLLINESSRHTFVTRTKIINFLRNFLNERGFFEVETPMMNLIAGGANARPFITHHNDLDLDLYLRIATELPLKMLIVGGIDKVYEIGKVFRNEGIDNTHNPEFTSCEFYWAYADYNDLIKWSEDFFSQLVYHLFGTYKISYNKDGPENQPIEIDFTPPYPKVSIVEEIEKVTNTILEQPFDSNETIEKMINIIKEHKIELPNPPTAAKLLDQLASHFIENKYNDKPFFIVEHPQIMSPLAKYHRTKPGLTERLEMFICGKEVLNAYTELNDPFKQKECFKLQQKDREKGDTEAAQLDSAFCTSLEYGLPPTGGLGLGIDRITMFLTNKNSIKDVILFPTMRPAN
UniProt I6X8D2, whole entry: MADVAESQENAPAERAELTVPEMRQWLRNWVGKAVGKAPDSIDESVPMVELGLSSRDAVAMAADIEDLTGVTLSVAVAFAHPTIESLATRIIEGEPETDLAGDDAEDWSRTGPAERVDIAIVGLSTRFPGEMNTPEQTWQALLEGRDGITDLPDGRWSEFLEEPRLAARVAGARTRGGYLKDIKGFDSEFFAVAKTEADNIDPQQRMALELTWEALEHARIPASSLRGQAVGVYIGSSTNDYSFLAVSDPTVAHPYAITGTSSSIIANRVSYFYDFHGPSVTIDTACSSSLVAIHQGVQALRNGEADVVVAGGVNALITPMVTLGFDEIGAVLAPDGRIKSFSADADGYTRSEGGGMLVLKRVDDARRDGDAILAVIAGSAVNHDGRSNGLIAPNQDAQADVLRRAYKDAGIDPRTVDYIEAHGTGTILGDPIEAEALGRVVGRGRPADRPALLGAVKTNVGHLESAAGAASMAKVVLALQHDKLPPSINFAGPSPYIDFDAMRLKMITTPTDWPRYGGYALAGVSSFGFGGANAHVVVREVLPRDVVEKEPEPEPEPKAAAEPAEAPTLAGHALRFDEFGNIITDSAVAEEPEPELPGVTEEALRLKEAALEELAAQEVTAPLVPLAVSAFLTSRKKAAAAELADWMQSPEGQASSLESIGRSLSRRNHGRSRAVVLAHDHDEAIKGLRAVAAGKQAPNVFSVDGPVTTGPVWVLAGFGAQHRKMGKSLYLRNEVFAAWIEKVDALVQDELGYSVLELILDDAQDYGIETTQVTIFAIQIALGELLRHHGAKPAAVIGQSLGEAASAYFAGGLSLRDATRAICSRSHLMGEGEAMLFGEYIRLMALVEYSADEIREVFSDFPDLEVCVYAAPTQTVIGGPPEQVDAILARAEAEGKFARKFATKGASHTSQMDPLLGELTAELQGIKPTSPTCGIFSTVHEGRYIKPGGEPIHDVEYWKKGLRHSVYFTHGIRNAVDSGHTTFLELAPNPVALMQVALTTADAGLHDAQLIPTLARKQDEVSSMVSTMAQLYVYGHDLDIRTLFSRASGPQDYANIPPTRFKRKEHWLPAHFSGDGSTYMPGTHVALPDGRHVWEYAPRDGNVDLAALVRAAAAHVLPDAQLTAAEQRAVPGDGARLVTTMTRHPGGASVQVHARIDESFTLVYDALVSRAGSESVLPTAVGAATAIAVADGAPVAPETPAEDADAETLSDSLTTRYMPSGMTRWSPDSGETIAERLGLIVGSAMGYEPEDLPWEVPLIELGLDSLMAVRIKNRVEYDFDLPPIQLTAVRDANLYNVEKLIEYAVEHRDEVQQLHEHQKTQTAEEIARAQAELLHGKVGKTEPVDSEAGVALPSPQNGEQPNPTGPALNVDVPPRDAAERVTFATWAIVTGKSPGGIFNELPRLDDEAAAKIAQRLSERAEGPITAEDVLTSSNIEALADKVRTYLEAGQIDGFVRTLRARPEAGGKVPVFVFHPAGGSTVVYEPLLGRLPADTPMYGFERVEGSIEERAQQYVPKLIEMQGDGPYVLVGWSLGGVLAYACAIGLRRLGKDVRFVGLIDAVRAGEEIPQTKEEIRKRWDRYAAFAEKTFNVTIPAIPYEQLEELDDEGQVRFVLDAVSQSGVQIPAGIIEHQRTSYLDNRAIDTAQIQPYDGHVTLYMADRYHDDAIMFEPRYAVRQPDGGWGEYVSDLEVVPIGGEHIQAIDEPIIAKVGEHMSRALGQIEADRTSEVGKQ

Data taken from ChEMBL document CHEMBL3988442, “University of Dundee, Small-Polar-MMV Screening Library” (2021).

ClpP1P2: 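Protease assay of ClpP1P2, read by the AMC dye that it sets free. Target: ClpP1P2, Mycobacterium tuberculosis (UniProt P9WPC5 and UniProt P9WPC3). Concentration: 50 µM. Higher reads as stronger inhibition, judged from the few compounds that gave an IC50. Most other retested compounds had strongly negative values. About 69,000 compounds were tested under these conditions; 0.015% (about 10) showed 50% or more at least once.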
TcHisRS: 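Histidine-tRNA ligase, Trypanosoma cruzi CL Brener (UniProt Q4DA54). Enzyme assay of histidyl-tRNA synthetase; the read-out is not stated. Concentration: 30 µM. Direction is inferred from retests: higher values go with stronger inhibition. Size under these conditions: about 69,000 compounds, about 31 of them at 50% or above in at least one test.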
PfKRS1: 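Enzyme assay of the cytosolic lysyl-tRNA synthetase in 384-well plates, read by luminescence. Target: Lysine-tRNA ligase, Plasmodium falciparum 3D7 (UniProt Q8IDJ8). Compounds at 30 µM. Higher reads as stronger inhibition, judged from the few compounds that gave an IC50. Size under these conditions: about 69,000 compounds, about 49 of them at 50% or above in at least one test.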
Pks13 thioesterase: 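Polyketide synthase Pks13, Mycobacterium tuberculosis (UniProt I6X8D2). Enzyme assay of the thioesterase domain of polyketide synthase 13; the read-out is not stated. Concentration: 30 µM. Higher reads as stronger inhibition (inferred from which compounds were picked for retests). Size under these conditions: about 67,000 compounds, about 300 of them at 50% or above in at least one test.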

Each number is a percent effect as filed.
The controls that fix the scale are not given in the record; negative values are as filed.
The compounds are a random part of those screened.

- Cc1nn(C)cc1C1=NS(=O)(=O)N(C)C(C(=O)Nc2ccc(Br)cc2)=C1 | ClpP1P2: 15.22%; TcHisRS: 3.846%; PfKRS1: 5.535%; Pks13 thioesterase: 57.71%
- Cc1nc(CC(=O)N2CCc3nc(-c4cnccn4)nc(O)c3C2)cs1 | ClpP1P2: -2.518%; TcHisRS: 8.511%; PfKRS1: 0.7446%; Pks13 thioesterase: -27.48%
- Cc1cc2n(n1)CC(CNCCc1cnn(C)c1)CN2 (centres undefined) | ClpP1P2: 10.96%; TcHisRS: -9.244%; PfKRS1: 2.166%; Pks13 thioesterase: -23.19%
- Cc1c(Cl)cccc1NC(=O)Cn1cc(C(=O)O)ccc1=O | ClpP1P2: 4.391%; TcHisRS: 0%; PfKRS1: 9.079%; Pks13 thioesterase: -35.12%
- CC(C(N)=O)S(=O)(=O)Cc1cc(Cl)c2c(c1)OCO2 (centres undefined) | ClpP1P2: 0.7064%; TcHisRS: 2.273%; PfKRS1: 7.349%; Pks13 thioesterase: -5.418%
- COc1ccccc1OCC(=O)NS(=O)(=O)c1ccccc1Br | ClpP1P2: 2.222%; TcHisRS: 0.3802%; PfKRS1: 3.922%; Pks13 thioesterase: -11.1%
- CC(C)COCC(NC(=O)c1cnccn1)c1ccco1 (centres undefined) | ClpP1P2: -24.52%; TcHisRS: 3.198%; PfKRS1: 1.814%; Pks13 thioesterase: -5.613%
- Cc1cccc(OCCN2CCCC(c3cc(C(N)=O)[nH]n3)C2)c1 (centres undefined) | ClpP1P2: -14.22%; TcHisRS: 5.65%; PfKRS1: -0.1677%; Pks13 thioesterase: -17.68%
- CS(=O)(=O)c1ccc(CN2C[C@@H]3OCC(=O)N(CC(N)=O)[C@@H]3C2)cc1 | ClpP1P2: -11.93%; TcHisRS: 0.4975%; PfKRS1: -0.8916%; Pks13 thioesterase: -34.14%
- O=C(NCC1CCC2(CC1)OCCO2)c1ccncc1F | ClpP1P2: -9.362%; TcHisRS: -0.4926%; PfKRS1: 3.482%; Pks13 thioesterase: -11.72%
- Cc1nc(N2CCC3(CCCNC3=O)C2)nc2c1CCCC2 (centres undefined) | ClpP1P2: -9.091%; TcHisRS: 5.464%; PfKRS1: 0.1849%; Pks13 thioesterase: -10.03%
- CC(C)C(=O)N1Cc2ccccc2CC2(CCCCN2C)C1 (centres undefined) | ClpP1P2: -5.735%; TcHisRS: 8.876%; PfKRS1: 1.074%; Pks13 thioesterase: -7.74%
- COc1cc(C)cc(C(C(=O)O)N(C)Cc2ccon2)c1OC (centres undefined) | ClpP1P2: -1.797%; TcHisRS: 2.128%; PfKRS1: 2.322%; Pks13 thioesterase: -27.29%
- CCc1ccc(NC(=O)C2OC(c3cccs3)=NN2C(C)=O)cc1 (centres undefined) | ClpP1P2: 16.47%; TcHisRS: -11.83%; PfKRS1: 4.872%; Pks13 thioesterase: -2.077%
- Cn1ccc(C(=O)Nc2nccn2Cc2ccccc2Cl)cc1=O | ClpP1P2: -5.313%; TcHisRS: 10.5%; PfKRS1: 6.013%; Pks13 thioesterase: -13.64%
- O=C(NCC(O)c1cccc(F)c1)c1sccc1OC(F)F (centres undefined) | ClpP1P2: 9.991%; TcHisRS: 1.02%; PfKRS1: 0.9746%; Pks13 thioesterase: -19.38%
- CN(C)C(C(=O)N1Cc2ccccc2C1)c1ccccc1F (centres undefined) | ClpP1P2: -11.7%; TcHisRS: 4.233%; PfKRS1: 4.261%; Pks13 thioesterase: -15.13%
- CNC(=O)NC(=O)C(NCc1ccccc1)c1ccccc1 (centres undefined) | ClpP1P2: 5.83%; TcHisRS: 7.831%; PfKRS1: -2.486%; Pks13 thioesterase: -54.04%
- Cc1cccc(CN2C[C@@H]3CN(C(=O)c4ccsc4)C[C@@H]3C2=O)n1 | ClpP1P2: 7.429%; TcHisRS: 1.961%; PfKRS1: 1.62%; Pks13 thioesterase: -25.54%
- O=C(NCCCNc1ccccn1)NCC1CCS(=O)(=O)C1 (centres undefined) | ClpP1P2: -6.375%; TcHisRS: -2.02%; PfKRS1: 3.162%; Pks13 thioesterase: -8.317%
- CCc1nc2c(NCC3COc4c(cccc4OC)C3)ncnc2o1 (centres undefined) | ClpP1P2: -1.176%; TcHisRS: 4.712%; PfKRS1: 1.7%; Pks13 thioesterase: -44.94%
- O=C(O)C1(O)CCN(c2ccc3cccc(Cl)c3n2)CC1 | ClpP1P2: -134%; TcHisRS: 4.478%; PfKRS1: -0.6323%; Pks13 thioesterase: 15.51%
- COc1cc2nc(C)n(CC(=O)NCCO)c(=O)c2cc1OC | ClpP1P2: 5.915%; TcHisRS: 6.024%; PfKRS1: 4.951%; Pks13 thioesterase: -12.26%
- CN1CCC(C)(CN(C)C(=O)c2ccc(CCC(C)(C)O)cc2)C1 (centres undefined) | ClpP1P2: 11.72%; TcHisRS: 4.721%; PfKRS1: 5.086%; Pks13 thioesterase: -2.175%
- Cc1cccc(CN2CC[C@H]3[C@@H]2CC(=O)N3CC2CC2)n1 | ClpP1P2: 1.699%; TcHisRS: 12.62%; PfKRS1: 5.059%
- Cc1nccn1-c1ccc(=O)n(CCNC(=O)c2cccs2)n1 | ClpP1P2: -8.7%; TcHisRS: 11%; PfKRS1: -1.951%; Pks13 thioesterase: -5.178%
- Cc1cc(CN2CCC(CNC(=O)CN3CCCCCC3)C2)[nH]n1 (centres undefined) | ClpP1P2: -5.149%; TcHisRS: -1.087%; PfKRS1: -1.82%; Pks13 thioesterase: -7.462%
- Cc1cccc(CN2C(=O)CC[C@@H]3[C@H]2CCN3Cc2nccn2C)n1 | ClpP1P2: 6.907%; TcHisRS: 11.82%; PfKRS1: -2.113%; Pks13 thioesterase: -58.49%

Repeated from the top, 3 entries:

{"structure": "Cc1nn(C)cc1C1=NS(=O)(=O)N(C)C(C(=O)Nc2ccc(Br)cc2)=C1", "ClpP1P2": 15.22, "TcHisRS": 3.846, "PfKRS1": 5.535, "Pks13 thioesterase": 57.71}
{"structure": "Cc1nc(CC(=O)N2CCc3nc(-c4cnccn4)nc(O)c3C2)cs1", "ClpP1P2": -2.518, "TcHisRS": 8.511, "PfKRS1": 0.7446, "Pks13 thioesterase": -27.48}
{"structure": "Cc1cc2n(n1)CC(CNCCc1cnn(C)c1)CN2", "stereo": "centres undefined", "ClpP1P2": 10.96, "TcHisRS": -9.244, "PfKRS1": 2.166, "Pks13 thioesterase": -23.19}